Laboratory results from paper PMC5562876, “The integration of Gβ and MAPK signaling cascade in zygote development” (Scientific Reports, 2017).
These are yes or no findings as the source states them, for the method shown.

How the values were obtained:
[1] = target: T1, MKK5 (purified, pull-down) (Arabidopsis thaliana, UniProt Q8RXG3 1-348); assay: pull-down; purified fusion proteins from E. coli incubated with glutathione agarose beads, 25 mM Tris-HCl pH 7.5, 100 mM NaCl, 1 mM DTT, 1 hr; seven washes with 0.1% Triton X-100; eluted with 15 mM GSH; immunoblot; both purified
T1 construct: MKK5, MAP kinase kinase 5, Arabidopsis thaliana, At3G21220; source: E. coli, purified (glutathione agarose beads)
T1 sequence (looked up): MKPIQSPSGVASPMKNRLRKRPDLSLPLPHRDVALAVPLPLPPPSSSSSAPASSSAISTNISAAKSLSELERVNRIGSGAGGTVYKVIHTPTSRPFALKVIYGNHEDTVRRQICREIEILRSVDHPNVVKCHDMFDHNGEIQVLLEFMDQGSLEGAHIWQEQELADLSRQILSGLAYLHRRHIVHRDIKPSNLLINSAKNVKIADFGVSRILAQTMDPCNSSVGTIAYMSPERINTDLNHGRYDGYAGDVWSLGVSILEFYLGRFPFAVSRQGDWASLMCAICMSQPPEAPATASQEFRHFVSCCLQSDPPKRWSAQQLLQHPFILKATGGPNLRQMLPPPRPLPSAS

[2] = target: T2, MKK4 (purified, pull-down) (Arabidopsis thaliana, UniProt O80397 1-366); assay: as above
T2 construct: MKK4, MAP kinase kinase 4, Arabidopsis thaliana, At1G51660; source: E. coli, purified (glutathione agarose beads)
T2 sequence (looked up): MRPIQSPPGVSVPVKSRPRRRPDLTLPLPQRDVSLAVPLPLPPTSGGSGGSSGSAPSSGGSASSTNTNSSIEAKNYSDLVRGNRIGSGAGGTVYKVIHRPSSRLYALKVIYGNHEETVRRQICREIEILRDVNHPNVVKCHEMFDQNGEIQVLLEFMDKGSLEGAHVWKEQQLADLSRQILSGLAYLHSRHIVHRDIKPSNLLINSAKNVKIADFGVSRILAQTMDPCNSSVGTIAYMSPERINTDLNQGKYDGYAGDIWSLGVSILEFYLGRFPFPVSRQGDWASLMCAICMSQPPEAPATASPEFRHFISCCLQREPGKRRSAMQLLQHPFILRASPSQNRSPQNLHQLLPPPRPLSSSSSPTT

B1: GPA1 (purified, pull-down) (natural protein, Arabidopsis thaliana, UniProt P18064 1-383, looked up)
chain: MGLLCSRSRHHTEDTDENTQAAEIERRIEQEAKAEKHIRKLLLLGAGESGKSTIFKQIKLLFQTGFDEGELKSYVPVIHANVYQTIKLLHDGTKEFAQNETDSAKYMLSSESIAIGEKLSEIGGRLDYPRLTKDIAEGIETLWKDPAIQETCARGNELQVPDCTKYLMENLKRLSDINYIPTKEDVLYARVRTTGVVEIQFSPVGENKKSGEVYRLFDVGGQRNERRKWIHLFEGVTAVIFCAAISEYDQTLFEDEQKNRMMETKELFDWVLKQPCFEKTSFMLFLNKFDIFEKKVLDVPLNVCEWFRDYQPVSSGKQEIEHAYEFVKKKFEELYYQNTAPDRVDRVFKIYRTTALDQKLVKKTFKLVDETLRRRNLLEAGLL
notes: GPA1, G protein alpha subunit, Arabidopsis thaliana, At2G26300; fusion protein; also called WtGPA1; source: E. coli, purified (glutathione agarose beads)
binding [1]: no binding
binding [2]: no binding
